Positions count from the first letter of the chain named. These are yes or no findings as the source states them, for the method shown. Some results given as binding are weak or reduced against the parent protein; the word gives no strength.
What was measured:
[1] = target: monkey CD3ε-his (Cat #: 90047-C08H, SinoBiological, China) (monkey) (UniProt Q95LI5); experiment: ELISA, plate coated with monkey CD3ε-his
[2] = target: human TCR/CD3 complex on cell surfaces (primary human CD4+ T cells; Jurkat cells; human PBMCs) (human) (UniProt P07766); experiment: FACS on primary human T cells, PE goat anti-human IgG, MFI
[3] = target: monkey CD3ε-his (Cat #: 90047-C08H, SinoBiological, China) (monkey) (UniProt Q95LI5); experiment: ELISA: plate coated with monkey CD3ε-his, antibody titrated, HRP goat anti-human IgG, OD 450
[4] = target: human TCR/CD3 complex on cell surfaces (primary human CD4+ T cells; Jurkat cells; human PBMCs) (human) (UniProt P07766); experiment: FACS on human T cells
[5] = target: monkey CD3ε-his (Cat #: 90047-C08H, SinoBiological, China) (monkey) (UniProt Q95LI5); experiment: SPR (BIAcore 8K); monkey CD3ε-his coupled to CM5 chip
[6] = target: human TCR/CD3 complex on cell surfaces (primary human CD4+ T cells; Jurkat cells; human PBMCs) (human) (UniProt P07766); experiment: FACS on primary human T cells

The chains behind the UniProt entries cited, without tags or fusion partners. Where a name states a change or a piece, a line headed by the entry shows the natural chain unless it says otherwise. Residues count along the entry.
UniProt Q95LI5: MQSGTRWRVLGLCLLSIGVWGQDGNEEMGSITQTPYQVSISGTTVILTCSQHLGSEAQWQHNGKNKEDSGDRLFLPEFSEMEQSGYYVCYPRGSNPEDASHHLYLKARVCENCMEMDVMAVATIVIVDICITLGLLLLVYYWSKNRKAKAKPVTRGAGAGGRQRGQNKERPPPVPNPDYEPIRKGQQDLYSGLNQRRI
UniProt P07766, residues 23-207: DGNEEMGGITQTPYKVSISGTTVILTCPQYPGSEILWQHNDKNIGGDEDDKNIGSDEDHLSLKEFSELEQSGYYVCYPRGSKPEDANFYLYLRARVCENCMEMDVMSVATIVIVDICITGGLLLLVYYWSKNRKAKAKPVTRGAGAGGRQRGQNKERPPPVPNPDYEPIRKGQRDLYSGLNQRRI

Measured: binding

B1: humanized anti-CD3 antibody 26H2L3 (human IgG1) (antibody, V domains shown)
VH: EVQLLESGGGLVQPGGSLRLSCAASGFTFNTYAMNWVRQAPGKGLEWVARIRSKYNNYATYYADSVKDRFTISRDNSKNTLYLQMNSLRAEDTAVYYCVKHGNFGNSYISWWAYWGQGTLVTVSS
VL: QAVVTQEPSLTVSPGGTVTLTCKSSTGAVTTSNYANWVQQKPGHAFRGLIGGTNLHAPGVPARFSGSLLGGKAALTLSGVQPEDEAEYYCALWYSNLWVFGGGTKLTVLG
not listed: [6]
binds: all other assays above

B2: chimeric antibody 19-26 (full length, human IgG1) (antibody, V domains shown)
VH: EVKLLESGGGLVQPKGSLKLSCAASGFTFNTYAMNWVRQAPGKGLEWVARIRSKYNNYATYYADSVKDRFTISRDDSQSILYLQMNNLKTEDTAMYYCVRHGNFGNSYISWWAYWGQGTLVTVSA
VL: QAVVTQESALTTSPGETVTLTCKSSTGAVTTSNYANWVQEKPDHLFTGLIGGTNLHAPGVPARFSGSLIGDKAALTITGAQTEDEAIYFCALWYSNLWVFGGGTKLTVLG
not listed: [4]
binds: all other assays above

B3: chimeric antibody 19-15 (full length, human IgG1) (antibody, V domains shown)
VH: B2 VH with D64I, I109L, W111Y
VL: B2 VL with K23Q, S32N, N54K, L55Q, H56R, A91V
binds: [2] | [6]

B4: humanized anti-CD3 antibody 26H3L3 (human IgG1) (antibody, V domains shown)
VH: B1 VH with N76D, V95M, K100R
VL: B1 VL
not listed: [6]
binds: all other assays above
